We go through 1 sequence from patent US5877280.

Weaker means in comparison with the reference protein, sequence or condition of that experiment. Where a protein sequence is shown, tags need not be part of it.

This series concerns the target T1, MutS (Apy MutS) (Aquifex pyrophilus) (UniProt P70755).
T1 sequence (limits assumed): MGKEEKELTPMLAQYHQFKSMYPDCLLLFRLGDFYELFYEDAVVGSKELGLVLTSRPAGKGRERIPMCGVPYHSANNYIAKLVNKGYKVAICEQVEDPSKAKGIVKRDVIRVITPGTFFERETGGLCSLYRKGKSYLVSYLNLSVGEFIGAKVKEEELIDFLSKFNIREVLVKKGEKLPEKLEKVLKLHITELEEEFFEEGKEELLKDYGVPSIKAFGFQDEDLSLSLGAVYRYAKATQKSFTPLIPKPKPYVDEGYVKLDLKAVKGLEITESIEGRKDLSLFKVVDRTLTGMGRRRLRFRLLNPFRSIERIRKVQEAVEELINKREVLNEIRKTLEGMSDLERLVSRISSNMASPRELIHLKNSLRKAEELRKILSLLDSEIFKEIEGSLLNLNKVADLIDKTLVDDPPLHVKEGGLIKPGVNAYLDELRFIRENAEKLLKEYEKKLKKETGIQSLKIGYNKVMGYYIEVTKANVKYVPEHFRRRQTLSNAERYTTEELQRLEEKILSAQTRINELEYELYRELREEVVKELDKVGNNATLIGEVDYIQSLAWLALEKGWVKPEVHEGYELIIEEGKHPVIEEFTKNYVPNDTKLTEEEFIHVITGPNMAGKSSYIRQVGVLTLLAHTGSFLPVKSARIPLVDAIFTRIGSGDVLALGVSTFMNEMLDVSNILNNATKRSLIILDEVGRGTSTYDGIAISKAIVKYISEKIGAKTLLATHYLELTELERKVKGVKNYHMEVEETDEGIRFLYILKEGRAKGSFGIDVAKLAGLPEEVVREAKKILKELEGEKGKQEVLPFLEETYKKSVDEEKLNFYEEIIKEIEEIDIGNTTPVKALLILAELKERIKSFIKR
Kind of series: EMSA. The following applies: non-specific complexes with homoduplex competed away by excess lambda DNA; purified recombinant protein; protein details: expressed in E. coli from pDG182/pDG184 or pET16b; only the site is given.

In the case of “GGGGATCCTC (double strand) [Homoduplex PCR product (pUC19 type, 337-340 bp)]”, the binding result was “binds more weakly”.
